From patent publication US20230047208A1, “RNA Splicing Modulation” (The General Hospital Corporation, priority 2020, published 2023)
Further values from the same series stand in other lists.

Test system: wildtype (WT) human fibroblast cell lines
Experiment: Transcriptome-wide splicing by RNA sequencing (RNASeq), exon triplet PSI change;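 as to Effect: six WT fibroblast lines treated seven days versus DMSO vehicle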;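 as to T-PSI: T-PSI is average treated PSI after seven days of treatment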
Format: cell-based
Set-up: key to Effect: Exclusion; Inclusion; Unchanged
Text: FIG. 2A provides a representation of an exon triplet. Exon U is upstream of Exon X, which is upstream of Exon D. R1, R2 and R3 represent RNA sequencing (RNASeq) reads spanning the regions between two adjacent exons. UI1, I1X, XI2 and I2D are four regions flanking the four splice sites of the exon-triplet. Each flanking region consists of 25 exonic base pairs and 75 intronic base pairs.
FIG. 2B provides a volcano plot showing the ψ (PSI: Percent Spliced-In) changes in splicing after treatment with Compound (I). Each dot represents one of the 161,097 expressed exon triplets in human fibroblasts. The x axis represents the ψ changes after treatment and the y axis represents the False Discovery Rate (FDR) (log 10 transformed). […] The horizontal dashed line indicates an FDR of 0.1. The dots on the right side of the right vertical dashed line and above the horizontal dashed line represent the exon-triplets with an increase for Exon X inclusion (Δψ≥0.1 and FDR<0.1) while the dots on left side of the left vertical dashed line and above the horizontal dashed line represent an increase for Exon X exclusion (Δψ≤−0.1 and FDR<0.1). Black dots in-between the two vertical dashed lines represent exon-triplets unchanged from the treatment.
In some aspects, analysis is performed on data derived from the assay to measure the magnitude of splicing to determine the amount of exons spliced into an mRNA transcript that is produced in the presence of Compound (I) relative to the amount in the absence of Compound (I) or presence of a negative control. In a preferred aspect, the method utilized is calculation of change in Percent Spliced In (ΔPSI). […] The ΔPSI value is derived from the formula: […]
The values for “a” and “b” represent the number of reads supporting the probability for potential inclusion or exclusion of an exon in an RNA transcript. The “a” value is derived from the number of reads within an exon triplet covering, in 5′ to 3′ order: the last few bases (>1 nucleotide) of an upstream exon operably linked to the first few bases (>1 nucleotide) of a middle exon. The “b” value is derived from the number of reads within an exon triplet covering, in 5′ to 3′ order: the last few bases (>1 nucleotide) of the middle exon operably linked to the first few bases (>1 nucleotide) of a downstream exon. The number of reads will indicate whether the splice junction of a middle exon has been identified as potentially having a CNN Motif(s) by the CNN Model described herein, wherein the inclusion or exclusion of the middle exon may be modulated in the presence of Compound (I) to produce one or more mature RNA isoforms from the gene transcript. The value for “c” represents the number of reads supporting the exclusion of the middle exon.
The effect on splicing modulation and corresponding splice differences toward exon inclusion or exclusion was determined by counting the RNASeq reads covering two splice junctions of exon triplets (three consecutive exons: Exon U, Exon X, Exon D) and the corresponding intervening introns, then comparing the change in Percent Spliced In (ΔPSI or Δψ) of the middle exon (Exon X) after treatment (as shown in FIG. 2A)^52,53. 934 exon triplets were identified showing differential middle exon inclusion or exclusion in response to Compound (I) treatment. Of these, 254 were exon inclusion events (Δψ≥0.1 and FDR<0.1) and 680 were exon exclusion events (Δψ≤−0.1 and FDR<0.1) (as shown in FIG. 2B). […] The splicing results were evaluated by RT-PCR in independent replicate experiments, confirming all the calculated Δψ values. […]

[1] = FAM114A1 Exon 38879692-38880047
[2] = FAM149B1 Exon 74994951-74995076
[3] = FAM160B2 Exon 21947272-21947365
[4] = FAM204A Exon 120101239-120101439
[5] = FAM211A-AS1 Exon 16342842-16343017
[6] = FAM211A-AS1 Exon 16342895-16343017
[7] = FAM211A-AS1 Exon 16342974-16343017
[8] = FBXW11 Exon 171341347-171341409
[9] = PHLDB1 Exon 118484009-118484165
[10] = PIKFYVE Exon 209138742-209138777

## Clc1nc(NCc2ccncc2)c2cc[nH]c2n1 [Compound (I), 2-chloro-N-(pyridin-4-ylmethyl)-7H-pyrrolo[2,3-d]pyrimidin-4-amine]
FAM111A Exon 58910970-58913329
  Effect: Exc
  T-PSI: 0.699
  ΔPSI: −0.201
[1]
  Effect: Unc
  T-PSI: 0.906
  ΔPSI: 0.008
FAM134C Exon 40739852-40739882
  Effect: Exc
  T-PSI: 0.878
  ΔPSI: −0.101
[2]
  Effect: Exc
  T-PSI: 0.795
  ΔPSI: −0.133
[3]
  Effect: Unc
  T-PSI: 0.108
  ΔPSI: 0.007
FAM172A Exon 93386436-93386536
  Effect: Exc
  T-PSI: 0.677
  ΔPSI: −0.147
FAM172A Exon 93410351-93410474
  Effect: Inc
  T-PSI: 0.790
  ΔPSI: 0.146
FAM173A Exon 772084-772134
  Effect: Unc
  T-PSI: 0.796
  ΔPSI: 0.002
FAM175A Exon 84391356-84391549
  Effect: Unc
  T-PSI: 0.892
  ΔPSI: 0.005
FAM175A Exon 84405145-84405319
  Effect: Unc
  T-PSI: 0.113
  ΔPSI: −0.005
[4]
  Effect: Exc
  T-PSI: 0.449
  ΔPSI: −0.134
FAM208B Exon 5777267-5777509
  Effect: Unc
  T-PSI: 0.807
  ΔPSI: −0.009
[5]
  Effect: Exc
  T-PSI: 0.179
  ΔPSI: −0.149
[6]
  Effect: Exc
  T-PSI: 0.180
  ΔPSI: −0.133
[7]
  Effect: Exc
  T-PSI: 0.155
  ΔPSI: −0.124
FAP Exon 163054689-163054808
  Effect: Exc
  T-PSI: 0.303
  ΔPSI: −0.258
FBXL3 Exon 77595792-77595996
  Effect: Inc
  T-PSI: 0.926
  ΔPSI: 0.169
FBXL12 Exon 9923907-9923950
  Effect: Exc
  T-PSI: 0.025
  ΔPSI: −0.145
FBXO25 Exon 382886-382935
  Effect: Exc
  T-PSI: 0.715
  ΔPSI: −0.125
[8]
  Effect: Exc
  T-PSI: 0.318
  ΔPSI: −0.156
PFDN1 Exon 139680001-139680167
  Effect: Exc
PFDN5 Exon 53690214-53690335
  Effect: Unc
PFDN5 Exon 53690238-53690335
  Effect: Unc
PFDN6 Exon 33258103-33258227
  Effect: Exc
  T-PSI: 0.847
  ΔPSI: −0.117
PFKM Exon 48529074-48529166
  Effect: Exc
  T-PSI: 0.563
  ΔPSI: −0.120
PHC3 Exon 169846128-169846175
  Effect: Inc
  T-PSI: 0.373
  ΔPSI: 0.148
PHKG2 Exon 30767503-30767593
  Effect: Exc
  T-PSI: 0.799
  ΔPSI: −0.177
[9]
  Effect: Inc
  T-PSI: 0.239
  ΔPSI: 0.143
PHLPP2 Exon 71718379-71718504
  Effect: Unc
  T-PSI: 0.867
  ΔPSI: 0.001
PI4KB Exon 151282687-151282731
  Effect: Exc
  T-PSI: 0.168
  ΔPSI: −0.129
PI4KB Exon 151298648-151298849
  Effect: Exc
  T-PSI: 0.314
  ΔPSI: −0.195
PIGF Exon 46815214-46815318
  Effect: Unc
  T-PSI: 0.139
  ΔPSI: −0.004
PIGG Exon 524225-524534
  Effect: Exc
  T-PSI: 0.784
  ΔPSI: −0.162
PIGN Exon 59830764-59830889
  Effect: Inc
  T-PSI: 0.945
  ΔPSI: 0.323
PIGP Exon 38444445-38444610
  Effect: Unc
  T-PSI: 0.163
  ΔPSI: 0.001
PIGQ Exon 632248-632309
  Effect: Unc
  T-PSI: 0.790
  ΔPSI: 0.005
PIGT Exon 44045157-44045294
  Effect: Exc
  T-PSI: 0.752
  ΔPSI: −0.165
PIGT Exon 44045157-44045334
  Effect: Exc
  T-PSI: 0.751
  ΔPSI: −0.167
PIK3C2A Exon 17169064-17169175
  Effect: Exc
  T-PSI: 0.871
  ΔPSI: −0.111
[10]
  Effect: Exc
  T-PSI: 0.309
  ΔPSI: −0.190
PILRB Exon 99950833-99950893
  Effect: Exc
  T-PSI: 0.688
